# Results of single-concentration screens

Mtb cholesterol medium: 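Whole-cell growth test on Mycobacterium tuberculosis, read after 4 days in a medium based on cholesterol and the lipid DPPC; the read-out is not stated. Tested at 50 µM. Direction is inferred from retests: higher values go with more growth inhibition. Of about 69,000 compounds tested this way, about 370 (0.54%) reached 50% or more in at least one test.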
Mtb glucose medium: 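Whole-cell growth test on Mycobacterium tuberculosis, read after 3 days in glucose-containing 7H9 medium; the read-out is not stated. Concentration: 50 µM. Higher reads as more growth inhibition (inferred: compounds with an IC50 in retests scored well above the rest). Size under these conditions: about 69,000 compounds, about 760 of them at 50% or above in at least one test.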

Results are given as percent effect.
The controls that fix the scale are not given in the record; negative values are as filed.
This is an unselected part of the compounds tested.
Two or more numbers in one place are separate tests of the same structure; such repeats can differ widely.

Compound	Mtb cholesterol medium	Mtb glucose medium
Nc1cc(-c2c[nH]nc2C2CCN(C(=O)C3CCCC3)C2)ccn1 (centres unmarked)	-1.204% and -13.31%	20.15%
CCc1nc(N)nc(NCCC(=O)NC2CCCCC2)c1C	-5.427%	-9.117% and 2.291%
Cc1ccc(-c2nc(CN3CCCC3Cn3cncn3)co2)cc1 (centres unmarked)	16.39%	34.99%
COCCNC(=O)C1CN(Cc2cccc(C)n2)Cc2ccnn2C1.O=C(O)C(F)(F)F.O=C(O)C(F)(F)F (centres unmarked)	-17.94%	4.753%
Cc1cccc(Cn2nc(C3CCNCC3)n(-c3ccccc3)c2=O)c1	-26.31%	-22.14%
CC(C)CS(=O)(=O)CC(=O)NC1CCCCNC1=O (centres unmarked)	9.826%	19.43%
CCN(CC)C(CNS(=O)(=O)c1ccc(C(N)=O)cc1)c1ccco1 (centres unmarked)	-17.54%	-10.28%
CCOC1CCCN(C(=O)c2nn(-c3ccccc3F)cc2O)C1 (centres unmarked)	-6.155%	20.18% and 15.23%
Cc1cc(N2CCC(c3ncc[nH]3)CC2)c2ccccc2n1	-7.892%	5.394%
CCc1cnc(CN(C)C2CCN(CC3CCN(C(C)=O)CC3)C2)o1 (centres unmarked)	-26.46%	-8.088%
O=C1NCC2(CCCN(c3ncnc4c3CCC4)CC2)O1 (centres unmarked)	-7.565% and -4.717%	-7.932%
Cn1ccnc1C(NCc1csc(Br)c1)c1ccccc1 (centres unmarked)	11.49%	27.89%
CC(C)(C)C(=O)NCCNc1cc(N2CCCC2)ncn1	8.918%	1.159%
CC(C)NC(=O)C1CN(C(=O)Cc2ccccc2)CC12CCOCC2 (centres unmarked)	-10.23%	2.858%
Cn1nc(C2CC2)c2c1NC(=O)CC2c1ccc(CN2CCCCC2)s1 (centres unmarked)	-4.486%	3.48%
CCSCCn1cc(-c2ncc[nH]2)nn1	0.08708%	19.55% and -0.2683%
CCOc1cccc(C(C)NCc2c(C)nn(C)c2N(C)C)c1 (centres unmarked)	-12.06%	-4.143%
O=C(O)C(F)(F)F.O=C1Nc2ccccc2C12CCN(Cc1cccs1)CC2	4.588%	8.702%
Cc1nn(C)c(N(C)C)c1CNCCCNS(C)(=O)=O	-16.1%	-37.12%
CCc1nc(C)c(C(=O)NCCN2CCCC2)s1	-4.882%	0.9306%
CC(C)[C@H]1COC(=O)N1Cc1noc(-c2ccccc2)n1	24.36%	1.204% and 14.3%
CSCCC(=O)N1CCCC(c2ncc[nH]2)C1 (centres unmarked)	29.34%	13.64%
Cc1csc(N2CCN(CC(=O)Nc3cc(C)nn3C)CC2C)n1 (centres unmarked)	-11.02%	-35.28%
CCc1noc(C)c1C(=O)NCc1ccccn1	-16.86%	4.974% and -18.55%
CC(C)c1nsc(N2CCOC3(CCCC3)C2)n1	-6.575% and 12.77%	3.715%
CNC(=O)c1ccnc(N2CCCC(COc3cccc(C)c3)C2)c1 (centres unmarked)	24.64%	18.36% and 28.89%
CCCc1noc(CCC(=O)N2CCCC2Cn2cc(C)cn2)n1 (centres unmarked)	3.066%	14.54%
Cc1ccc(CNC(=O)c2nc3c(n2C)CCN(c2ncccn2)C3)o1	-9.373%	20.55%
O=C(O)C(F)(F)F.[H][C@@]12CCN(c3cccc(F)c3)C[C@@]1([H])O[C@@H](C(=O)N1CCCC1)C2	14.48%	13.18%
CCn1nc(C)c(NC(=O)CN2CC[C@@H](F)C2)c1C	5.526%	20.37%
Cc1ncc(CNC(=O)Cc2ccsc2)c(C2CCCN2C)n1 (centres unmarked)	5.437%	-10.31%
COc1ccc(CNC(=O)CNc2cc3c(cc2Cl)OCCCO3)cc1	1.697%	14.65%
[H][C@]12CC[C@]([H])(CN(C(=O)N(C)C)C1)N(Cc1nnc(-c3ccccc3)o1)C2	2.692%	16.73%
Cn1ccnc1CN1CCN(CC(O)c2cc(F)ccc2F)CC1 (centres unmarked)	15.06%	15.73%
CCOc1ccccc1OC1CCN(Cc2ccn(C)c(=O)c2)CC1	-28.73%	-11.62%
CCOCC1CN(c2ccc(C)nn2)Cc2cnn(CC)c21.O=C(O)C(F)(F)F.O=C(O)C(F)(F)F (centres unmarked)	-3.954%	-5.842%
Cc1ccc(CNC(=O)c2nn(C)c3c2CS(=O)(=O)CC3)o1	-5.763%	11.72%
CCN1CCN(C2CCN(Cc3nc(-c4ccoc4)no3)CC2)C1=O	-11.49%	-1.535%
COCC1c2nnn(CC3CC3)c2CCN1C(=O)c1cnccn1 (centres unmarked)	-7.744% and -14.29%	-6.345% and 2.945%
CNS(=O)(=O)c1csc(C(=O)N(C)Cc2ccccc2C)c1	0.9345%	-29.11%
CC(C(=O)NCc1ccc(N2CCCCC2)nc1)S(C)(=O)=O (centres unmarked)	-30.92%	-23.72%
Cc1cc(CN(C)C(=O)C(c2cccnc2)N2CCOCC2)n[nH]1 (centres unmarked)	-5.611%	-13.88%
Cc1ccsc1CN(C)C(=O)C1CCCN(C(N)=O)C1 (centres unmarked)	-21.41%	-46.88% and -1.463%
[H][C@@]12CCN(C[C@@H]1CN(CC)CC)[C@@H](CNC(=O)c1ccco1)C2	-13.65%	-34.83% and -3.189%
Cc1cnc(CNC(=O)NCc2cccnc2N(C)C)s1	-2.388%	10.45%
CC(C)NC(=O)CN1CCCNCC1	19.76%	-12.21% and -5.426%
NC(=O)CN1CCC(C(=O)N2CCCC(OCc3cccnc3)C2)CC1 (centres unmarked)	9.041%	-31.59%
COc1cc(OC)cc(N2CCC(NC(=O)c3cccn3C)CC2)c1	7.143%	12.18%
CC(C)C(=O)NCc1ccccc1NS(=O)(=O)c1ccccc1	-4.823% and -22.27%	-19.46%
CCc1nc(COc2ccc(N(C)C(C)=O)cc2)no1	-50.94%	-5.514% and -63.21%
CC(COc1ccc(F)cc1F)NC(=O)NCCN1CCOCC1 (centres unmarked)	-0.6916%	0.0622% and 19.75%
C[C@@H]1CN2C[C@H](O)CC2CN1Cc1ccc2nccnc2c1 (some centres unmarked)	-4.816%	6.562%
CSC(C)(C)CNC(=O)NCCC1CCN(C)CC1	20.78%	-12.29%
CN1CCN(c2ncc3c(c2C(=O)O)CCN(C2CCOC2)C3)CC1.O=C(O)C(F)(F)F.O=C(O)C(F)(F)F (centres unmarked)	-2.32%	-3.522% and -4.657%
O=C(O)C(F)(F)F.O=C(O)C(F)(F)F.[H][C@@]12CN(CC3CCOC3)C[C@]1([H])CN(c1ncccn1)C2 (some centres unmarked)	-17.49%	-24.09%

The values are deposited in ChEMBL (CHEMBL3988442, “University of Dundee, Small-Polar-MMV Screening Library” (2021)).